Laboratory results published in PMC9656482, “In Vitro and In Vivo Biological Activity of Ruthenium 1,10-Phenanthroline-5,6-dione Arene Complexes” (International Journal of Molecular Sciences, 2022).

Test system: A2780 cells
Experiment: Complexes internalization by ICP-AES
Assay type: cell-based, human
Details: A2780, 10 μM, 3 h and 6 h

Row | SMILES | internalization (percentage of ruthenium inside cells)
1 | Cc1ccc(C(C)C)cc1.O=C1C(=O)c2cccnc2-c2ncccc21.O=S(=O)([O-])C(F)(F)F.[Cl][Ru+] [JHOR10, [Ru{p-C6H4(Me)(iPr)}{(Dione)Cl][CF3SO3]] | lower internalization rate
2 | Cc1ccc(C(C)C)cc1.F[P-](F)(F)(F)(F)F.O=C1C(=O)c2cccnc2-c2ncccc21.[Cl][Ru+] [JHOR11] | higher internalization
